In assay [1] the target is MBD2a-TAPtag (UniProt Q9UBB5). The assay is described as follows: affinity purification with mass spectrometry; as a1, but with the corresponding whole-cell extract.
Assay [2] addresses MBD2a-TAPtag (UniProt Q9UBB5). The assay is described as follows: affinity purification with mass spectrometry; TAP-tagged MBD2a or MBD2b as bait, expressed in MBD2KO HUDEP-2 cells; nuclear extract; affinity purification, gel bands, LC-MS; empty vector as control.

The chains behind the UniProt entries cited, without tags or fusion partners.
UniProt Q9UBB5: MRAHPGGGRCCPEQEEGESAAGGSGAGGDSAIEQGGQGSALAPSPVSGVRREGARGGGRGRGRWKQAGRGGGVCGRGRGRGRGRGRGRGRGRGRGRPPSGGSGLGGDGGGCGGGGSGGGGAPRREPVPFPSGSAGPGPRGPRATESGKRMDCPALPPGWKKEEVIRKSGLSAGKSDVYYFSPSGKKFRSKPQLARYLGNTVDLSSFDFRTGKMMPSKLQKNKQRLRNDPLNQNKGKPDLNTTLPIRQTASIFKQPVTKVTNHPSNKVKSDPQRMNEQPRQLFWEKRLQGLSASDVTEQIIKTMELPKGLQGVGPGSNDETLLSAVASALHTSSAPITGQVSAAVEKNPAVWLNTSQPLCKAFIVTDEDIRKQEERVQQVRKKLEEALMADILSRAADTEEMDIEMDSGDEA
UniProt O14744: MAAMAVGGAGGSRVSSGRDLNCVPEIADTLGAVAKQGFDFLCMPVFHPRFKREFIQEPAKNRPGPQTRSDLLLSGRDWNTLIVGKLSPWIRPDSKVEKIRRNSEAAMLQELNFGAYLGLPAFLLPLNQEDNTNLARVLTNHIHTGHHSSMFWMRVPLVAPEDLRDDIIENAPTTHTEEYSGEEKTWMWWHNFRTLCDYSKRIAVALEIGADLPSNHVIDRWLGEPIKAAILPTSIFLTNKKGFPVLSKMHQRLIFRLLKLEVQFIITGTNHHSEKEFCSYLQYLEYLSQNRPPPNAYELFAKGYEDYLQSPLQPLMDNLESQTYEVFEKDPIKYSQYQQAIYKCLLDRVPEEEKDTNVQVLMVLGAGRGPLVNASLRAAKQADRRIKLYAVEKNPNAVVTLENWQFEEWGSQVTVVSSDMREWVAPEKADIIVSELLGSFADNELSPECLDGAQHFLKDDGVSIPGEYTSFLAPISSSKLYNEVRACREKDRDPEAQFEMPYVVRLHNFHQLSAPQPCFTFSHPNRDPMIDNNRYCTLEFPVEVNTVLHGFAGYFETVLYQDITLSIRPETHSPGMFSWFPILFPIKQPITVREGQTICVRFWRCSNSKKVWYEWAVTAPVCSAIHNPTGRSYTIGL
UniProt Q9BQA1: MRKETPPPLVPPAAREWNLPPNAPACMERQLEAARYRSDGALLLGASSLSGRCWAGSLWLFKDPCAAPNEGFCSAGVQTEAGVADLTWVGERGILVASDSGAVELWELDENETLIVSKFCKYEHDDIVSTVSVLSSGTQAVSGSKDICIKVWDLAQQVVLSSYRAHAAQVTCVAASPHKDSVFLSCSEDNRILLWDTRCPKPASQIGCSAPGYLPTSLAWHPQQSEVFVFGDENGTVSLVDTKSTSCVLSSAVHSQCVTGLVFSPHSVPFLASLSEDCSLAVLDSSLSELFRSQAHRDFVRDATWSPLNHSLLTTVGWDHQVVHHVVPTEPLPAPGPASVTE

No constants are given. Whether binding was seen depends on the method and setting. Binding seen in cells or lysates may run through a third protein. These calls come from enrichment with a bait or labelling near it, and not all partners need be listed.

Regarding “PRMT5 (from UniProt O14744 1-637) (enzyme)”, the binding entry with MBD2a-TAPtag [1] and with MBD2a-TAPtag [2] was “binds” each time.
Consider MEP50 (from UniProt Q9BQA1 1-342), for which the binding result with MBD2a-TAPtag [1] and in the assay with MBD2a-TAPtag [2] was “binds” in each case.

Values taken from PMC10288633.
